Assay results from patent US6060568A, “Carbene transition metal catalysts” (The Governors of the University of Alberta, priority 1999, dated 2000).

Tests used:
[1] = Solution phase ethylene polymerization, semi-batch reactor (SBR); settings: GPC
Experimental: (§1) All the solution polymerization experiments described below were conducted using an Autoclave Engineers Zipperclave reactor (500 mL). All the chemicals (solvent, catalyst and cocatalyst) were fed into the reactor batchwise except ethylene which was fed on demand. No product was removed during the polymerization reaction. As are known to those skilled in the art, all the feed streams were purified prior to feeding into the reactor by contact with various absorption media to remove catalysts killing impurities such as water, oxygen, sulfur and polar materials. All components were stored and manipulated under an atmosphere of purified argon or nitrogen. The reactor uses a programmable logical control (PLC) system with Wonderware 5.1 s, oftware for the process control. Ethylene polymerizations were performed in the reactor equipped with an air driven stirrer and an automatic temperature control system.
(§2) The catalyst was dissolved in toluene. The polymerization reaction time is typically 10 minutes. The reaction was terminated by adding 5 mL of methanol to the reactor and the polymer was recovered by evaporation of the solvent. The polymerization activities were calculated based on the ethylene consumption.
(§3) Examples 1-18 were conducted on a solution semi-batch reactor (SBR).
SBR Experimental Conditions with MAO Activation
(§4) Catalyst Concentration 200 μmol/L
PMAO-IP Al/Zr = 300 (mol/mol)
(§5) Reaction Temperature 160° C.
(§6) Reactor Pressure 140 psig total
(§7) Stirring Speed 2000 rpm
(§8) SBR Experirimental Conditions with Trinitylborate Activation
(§9) PMAO-IP 1 mmol/L as impurity scavenger
^a SBR standard MAO screening conditions.
^b Insitu alkylation: PMAOIP (Al/M = 20) premixed with catalyst, the
mixture and tritylborate solution were injected into the reactor
^c SBR standard trityl borate screening conditions.
^d Premix catalyst and cocatalyst.
^e Zr(Bz)4 as scavenger at 1.2 mmol/L. […]

[2] = Solution phase copolymerization of ethylene with 1-octene, semi-batch reactor (SBR); settings: [CPh3 ][B(C6 F5)4 ]; copolymerization with 20 mL of 1-octene; GPC
Experimental: Polymer molecular weights and molecular weight distributions were measured by GPC (Waters 150-C) at 140° C. in 1,2,4-trichlorobenzene calibrated using polyethylene standards.
as §1, §2, §3, §8, §4, §9, §5, §6, §7
^f Copolymerization with 20 mL of 1octene. Polymerization activities
were calculated based on polymer weight. 20.7 Br/1000 C detected by NMR
for copolymer produced in run 12.

[3] = SBR standard MAO screening: PMAO-IP, 160° C.
[4] = [CPh3 ][B(C6 F5)4 ], in situ alkylation, PMAO-IP (Al/M = 20)
[5] = SBR standard trityl borate screening: [CPh3 ][B(C6 F5)4 ]
[6] = [CPh3 ][B(C6 F5)4 ], Zr(Bz)4 as scavenger
[7] = [CPh3 ][B(C6 F5)4 ], premix catalyst and cocatalyst
[8] = cocatalyst B(C6 F5)3, footnote c conditions

Row | Compound | Polymer Mn*10^-3 [1, 3] | Polymer Mw*10^-3 [1, 3] | Polymer PD (Mw/Mn) [1, 3] | Polymer Mn*10^-3 [1, 5] | Polymer Mw*10^-3 [1, 5] | Polymer PD (Mw/Mn) [1, 5] | also measured
1 | [ZrCl2 {C(Ph2 P=NSiMe3)2 }] [Zr-3D] | 0.45 | 52.5 | 116.7 |  |  |  | 
2 | [ZrCl2 {C(Cy2 =NSiMe3)2 }] [Zr-3C] | 0.25 | 67.3 | 269.2 |  |  |  | Polymer Mn*10^-3 [1, 4]: 139.1; Polymer Mw*10^-3 [1, 4]: 643.6; Polymer PD (Mw/Mn) [1, 4]: 4.63
3 | [Cl][Zr+2][Cl].c1cc[cH-]c1.c1cc[cH-]c1 [Cp2 ZrCl2, reference compound] | 2.2 | 7.8 | 4.6 |  |  |  | 
4 | [ZrMe2 {C(Cy2 =NSiMe3)2 }] [Zr-3C-Me2] |  |  |  | 127.1 | 449.1 | 3.53 | 
5 | [Zr{C(Ph2 P=NSimMe3)2 }(CH2 C6 H5)2 ] [Zr-6D] |  |  |  | 38.1 | 153.9 | 4.04 | Polymer Mn*10^-3 [1, 6]: 3.45; Polymer Mw*10^-3 [1, 6]: 199.2; Polymer PD (Mw/Mn) [1, 6]: 57.7; Polymer Mn*10^-3 [1, 7]: 78.7; Polymer Mw*10^-3 [1, 7]: 535.1; Polymer PD (Mw/Mn) [1, 7]: 6.8; Polymer Mn*10^-3 [1, 8]: 20.1; Polymer Mw*10^-3 [1, 8]: 316.2; Polymer PD (Mw/Mn) [1, 8]: 15.73; Polymer Mn*10^-3 [2]: 2.08; Polymer Mw*10^-3 [2]: 94.8; Polymer PD (Mw/Mn) [2]: 45.6
